Our source for the AC50 and cell number change values is PubChem BioAssay AID2685 (National Center for Advancing Translational Sciences (NCATS), 2010).

Some of the results follow. Further columns of the screen follow, without active or inactive calls. Compounds called inactive in the main read-out are mostly missing here. Words in brackets tell the shape of the fitted curve; partial curves, single points and poor fits give uncertain potencies.

One may read the AC50 as the midpoint of the concentration-response curve, whichever way the signal moves. A high value points to weaker potency.

A short description of the experiment: qHTS Assay for Lipid Storage Modulators in Drosophila S3 Cells.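 On cell number change: cells counted by Cell Tracker Red CMTPX staining in the red channel.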 The following applies: BODIPY lipid droplet fluorescence, 18-24 h; for cell number change: measured here: cell count max response, cells fed with added oleic acid. In a few lines: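 Drosophila S3 cells got compounds at several concentrations plus oleic acid (400 uM solution). Laser-scanning cytometry with 488 nm excitation read lipid droplets at 500-530 nm and cells at 575-640 nm. Percent activity was relative to 20 uM Triacsin C.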
A general note: In qHTS, concentration-response curves come from the screen itself.

Setting [1] is: measured here: lipid fluorescence (Fed channel) AC50, cells fed with added oleic acid.
Setting [2] is: measured here: cell number channel AC50, cells fed with added oleic acid.

As for `COCc1cc(C)nc(SCC(=O)Nc2ccccc2N2CCOCC2)c1C#N`, under setting [1], the AC50 was 16.4 µM [falling, partial curve].

Take `CCOC(=O)c1cnn(-c2ccc([N+](=O)[O-])cc2)c1N`: the cell number change was -38%. Moreover, the AC50 under setting [2] is 18.4 µM [falling, single point].

With `COc1cccc(-c2nnn(CC(=O)O)n2)c1`, the AC50 under setting [1] was 5.8 µM [falling, single point].

With `Cc1ccc(Cn2cc(/C=N/Nc3ccc([N+](=O)[O-])cn3)c3ccccc32)cc1`, the cell number change is -11.5%. Moreover, under setting [1], the AC50 was 11.6 µM [falling, partial curve].

Take `Cc1nn(C)c(N)c1C(O)(c1nccn1C)C(F)(F)F` (stereo not drawn): the cell number change was -13%. Moreover, under setting [1], the AC50 is 0.0291 µM [falling, full curve, poor fit].

Turning to `O=S(=O)(Nc1ccc(-c2ccc3nncn3n2)cc1)c1ccc(Cl)s1`, the AC50 under setting [2] is 6.51 µM [rising, single point].

Regarding `COc1ccc(C(=O)Nc2nc3ccccc3s2)cc1`, the cell number change is -0.518%.

As to `CCOC(=O)CSc1nc2sc3c(c2c(=O)[nH]1)CC(C)(CC)OC3` (stereo not drawn), the cell number change was determined as 13.8%. The AC50 under setting [1] is 4.61 µM [falling, partial curve].

`CCOC(=O)CC1C(=O)NCCN1C(=O)c1cc2c(=O)n3cccc(C)c3nc2s1` (stereo not drawn): the cell number change worked out at 16.2%.

On to `CSc1ccccc1NC(=O)CCn1c(=O)oc2ccccc21`, for which the cell number change was -22.9%. For the same compound, under setting [1], the AC50 was 6.51 µM [falling, single point].

For `COc1ccc(NC(=O)CSc2sc3c(O)cc(=O)[nH]c3c2C#N)c(OC)c1`, the cell number change was found to be 23.5%.

As to `CN1C(=O)N(C)C2CC1N(C)C(=O)N2C`, the cell number change was -5.21%. Under setting [1], the AC50 was 4.61 µM [falling, single point].

Regarding `COc1ccc(-c2cc(C(F)F)nc(-n3nc(C)cc3C)n2)cc1`, the cell number change was -22.1%. Further, the AC50 under setting [1] is 16.4 µM [falling, single point].

As to `CCn1cc(C(=O)NC2CC3CCC2C3)c(=O)c2ccc(C)nc21` (stereo not drawn), the cell number change is 21%. Besides, under setting [1], the AC50 was 4.61 µM [rising, partial curve].

Consider `COc1ccc(-c2ccnc(SCC(=O)N3CCN(c4ccccc4)CC3)n2)cc1`, for which the cell number change came to 30.7%. The half-maximal activity concentration (AC50) under setting [2] was 16.4 µM [rising, single point]. The AC50 under setting [1] is 8.2 µM [rising, partial curve, poor fit].

Regarding `CS(=O)(=O)c1ccc2nc(NC(=O)c3ccc(NS(=O)(=O)c4ccc(F)c(F)c4)cc3)sc2c1`, the cell number change is -3.18%. For the same compound, the AC50 under setting [1] is 13 µM [falling, partial curve].

As for `Cn1nnnc1SCCOc1ccc(C#N)cc1`, the cell number change is -5.05%.

Consider `Cc1cccc(OCc2nnc(SCC(=O)NCCc3ccccc3)o2)c1`, for which the cell number change turned out to be 2.91%. In addition, under setting [1], the AC50 was 0.291 µM [rising, partial curve, poor fit].

Regarding `COc1cc(/C=C/C(=O)Nc2cc(C(F)(F)F)ccc2Cl)cc(OC)c1OC`, the cell number change is -55.3%. Also, the AC50 under setting [2] was 2.06 µM [falling, full curve]. For the same compound, the AC50 under setting [1] was 11.6 µM [falling, single point].

Take `Cc1noc(C)c1CSCC(=O)NC1=NCCS1`: the cell number change came to 4.12%. Also, under setting [1], the AC50 was 29.1 µM [rising, single point].

`COc1ccc(C(=O)O)cc1S(N)(=O)=O`: the cell number change is -27.1%. Also, under setting [1], the AC50 was 9.2 µM [falling, partial curve, poor fit].

For the compound `COc1ccc(S(=O)(=O)N2CCCCC2)cc1NC(=O)CN1CCN(C(C)=O)CC1`, the cell number change amounted to 3.85%.

In the case of `Cc1cc(NC(=O)c2cccc([N+](=O)[O-])c2)n(-c2ccccc2)n1`, the cell number change turned out to be 15%. Besides, the AC50 under setting [1] was 29.1 µM [rising, single point].

As for `O=C1C(=O)N(CCCn2ccnc2)C(c2ccc([N+](=O)[O-])cc2)/C1=C(\O)c1ccc2c(c1)OCCO2` (stereo not drawn), the cell number change is 6.37%. Also, the AC50 under setting [1] is 2.31 µM [rising, single point].

Take `OCC[C@@H]1C[C@H](O)[C@@H](O)[C@@]2(Cc3ccccc3O2)O1`: the cell number change is 21.3%.

As for `Cc1ccc(/C=C/C(=O)Nc2nnc(SCc3ccc(C#N)cc3)s2)o1`, the cell number change was -43.7%. For the same compound, the AC50 under setting [2] is 29.1 µM [falling, single point]. Moreover, the concentration at half-maximal activity (AC50) under setting [1] was 29.1 µM [falling, single point].

On to `CCCCCOC(=O)C1=C(C)NC(=O)NC1c1ccc(OC)cc1` (stereo not drawn), for which the cell number change was -26.8%. Under setting [1], the AC50 was 29.1 µM [falling, single point].

`CCCn1nc(NC(=O)c2ccco2)c2cc3ccc(C)cc3nc21`: the cell number change was -31.6%. Further, under setting [1], the AC50 was 0.58 µM [rising, full curve].

For the compound `O=C(Nc1cccc2cccnc12)c1cccc(N2C(=O)CCC2=O)c1`, the cell number change is -2.86%. Besides, the AC50 under setting [1] was 0.517 µM [rising, full curve, poor fit].

With `O=C(CSc1nnc(NC(=O)c2ccco2)s1)Nc1ccccc1Cl`, the AC50 under setting [1] is 6.51 µM [falling, partial curve].

`CC(=O)c1c(C)[nH]c(C(=O)OCC(=O)c2c(N)n(C)c(=O)n(C)c2=O)c1C`: the AC50 under setting [1] is 0.103 µM [rising, full curve, poor fit].

Take `COc1ccc(Br)cc1/C=N/NC(=O)c1nc(-c2ccccc2)n2c1CCCCC2`: the AC50 under setting [1] was 29.1 µM [rising, partial curve].

With `CC(C(=O)NCCN1CCOCC1)(c1ccccc1)c1ccccc1`, the cell number change was -42.5%. In addition, the AC50 under setting [2] is 25.9 µM [falling, single point]. Further, the AC50 under setting [1] was 20.6 µM [falling, single point].

Take `CCOc1ccc(-c2nnc(SCC(=O)NC(C)(C)C)nc2-c2ccc(OCC)c(OC)c2)cc1OC`: the cell number change was determined as 10.6%.

`O=C(NCc1cccs1)C1CCCN(C(=O)Nc2ccccc2)C1` (stereo not drawn): the cell number change amounted to 2.94%.

Take `CCOC(=O)NC(=O)c1cn(Nc2ccccc2)c(=O)[nH]c1=O`: the cell number change is -10.4%. Further, the concentration at half-maximal activity (AC50) under setting [2] is 0.651 µM [falling, full curve].

On to `NC(=O)c1ccc(NC(=O)COC(=O)CC(NC(=O)c2ccccc2Cl)c2ccccc2)cc1` (stereo not drawn), for which the cell number change came out at 8.91%. For the same compound, the AC50 under setting [1] was 3.66 µM [rising, full curve].

As to `COCCCn1c(=N)c(C(=O)NCc2ccc3c(c2)OCO3)cc2c(=O)n3ccccc3nc21`, the cell number change was -10.2%. In addition, the AC50 under setting [1] is 0.58 µM [rising, full curve].

As to `C=CCNC(=O)C1CCN(S(=O)(=O)c2ccc3ccccc3c2)CC1`, the cell number change is -9.12%. For the same compound, the AC50 under setting [1] was 29.1 µM [rising, single point].

Turning to `O=C1CCNCCN1[C@H](CO)c1ccccc1`, the cell number change came out at 6.8%. The AC50 under setting [1] was 4.11 µM [rising, full curve, poor fit].

In the case of `CCc1noc(C)c1C(=O)N(CC(C)C)c1c(N)n(Cc2ccccc2)c(=O)[nH]c1=O`, the cell number change is -2.46%. Also, under setting [1], the AC50 was 20.6 µM [rising, single point].

Take `CSCCNC(=O)c1ccc(C(C)(C)C)cc1`: the cell number change was 0.453%. Further, under setting [1], the AC50 was 0.58 µM [falling, partial curve].

With `Clc1ccc(N2CCN(/N=C/c3cccnc3)CC2)cc1`, the cell number change worked out at 1.56%. Also, under setting [1], the concentration at half-maximal activity (AC50) is 5.8 µM [rising, full curve, poor fit].

On to `CC(C)(C)Cc1nnc(NC(=O)c2ccc3c(c2)OCO3)s1`, for which, under setting [2], the AC50 was 4.11 µM [rising, partial curve, poor fit].

`CCCCCOc1ccc(C(C)(O)C(CN2CCOCC2)c2ccccc2)cc1` (stereo not drawn): the cell number change was -19.9%. Further, the AC50 under setting [1] is 29.1 µM [falling, single point].

Turning to `Cc1ccc(/C([O-])=C(/C(=S)NCc2ccco2)[n+]2ccccc2)cc1`, the cell number change turned out to be 34.7%. Moreover, the AC50 under setting [2] is 16.4 µM [rising, single point].

In the case of `Clc1cccc(Nc2nc(N3CCOCC3)nc(N3CCOCC3)n2)c1`, the cell number change amounted to 0.612%. Besides, the AC50 under setting [1] was 3.66 µM [rising, full curve].

As for `O=C(Nc1ccc(Cl)cn1)c1ccc2ccccc2n1`, the cell number change was -23.5%.

`CCOC(=O)c1c(-c2ccc(Cl)cc2)c(C#N)c(=O)n(N)c1N`: under setting [2], the concentration at half-maximal activity (AC50) was 0.082 µM [rising, full curve, poor fit].

As for `COc1cc(C(=O)NC(C)c2ccc3ccccc3c2)cc(Cl)c1O` (stereo not drawn), the cell number change came out at 13.5%. The AC50 under setting [1] is 29.1 µM [rising, partial curve, poor fit].

For the compound `O=C(NC(=S)N1CCN(Cc2ccccc2)CC1)c1cccnc1`, the cell number change was determined as 2%.

`COc1ccccc1/C=N/NC(=O)c1csc(C)c1C`: the cell number change was found to be 43%. Further, the AC50 under setting [2] is 29.1 µM [rising, single point]. Further, under setting [1], the AC50 was 7.31 µM [rising, partial curve, poor fit].

Turning to `Cc1c(NC(=S)NC(=O)c2cc3ccccc3o2)cccc1C(=O)O`, the cell number change was found to be 10.6%. For the same compound, the half-maximal activity concentration (AC50) under setting [1] is 0.00517 µM [rising, full curve, poor fit].

Take `CCOC(=O)C1=C(CSc2nc3c(cc2C#N)CCC3)OC(N)=C(C#N)C1c1ccccc1` (stereo not drawn): the cell number change was -13%. Besides, the AC50 under setting [2] was 0.731 µM [falling, single point]. In addition, the AC50 under setting [1] is 0.366 µM [falling, partial curve, poor fit].

Turning to `COc1ccc(-c2ncncc2-c2csc(C)n2)c(O)c1OC`, the cell number change is 33.9%. Also, the AC50 under setting [2] was 10.3 µM [rising, partial curve].

For `CCOCC(=O)Nc1ccc(OCc2ccccc2)cc1`, the cell number change was 24.3%.

Regarding `COc1ccccc1CNC(=O)C1CC(c2c(Cl)cccc2Cl)=NO1` (stereo not drawn), the cell number change worked out at 31.6%. The AC50 under setting [2] is 6.51 µM [rising, partial curve]. Also, the AC50 under setting [1] is 4.11 µM [rising, full curve, poor fit].

For the compound `COc1ccc(N2CCN(C(=O)c3ccc4c(c3)[nH]c(=S)n3c5ccccc5nc43)CC2)cc1`, the cell number change is -18.7%. Moreover, under setting [2], the AC50 was 6.51 µM [rising, single point]. In addition, the AC50 under setting [1] is 0.0326 µM [rising, full curve, poor fit].

With `COC(=O)c1cc(NC(=O)c2ccc(Cn3cc(Cl)cn3)o2)cc(C(=O)OC)c1`, the cell number change is -58.4%. Under setting [2], the AC50 was 29.1 µM [falling, single point].

Take `COc1ccccc1N1CCN(C(=O)c2cccc(S(=O)(=O)NCc3cccnc3)c2)CC1`: the cell number change is -10.6%. The AC50 under setting [1] is 29.1 µM [falling, single point].

Regarding `CCN1CCN(C(=O)c2cc3cc4ccc(OC)cc4nc3s2)CC1`, the cell number change turned out to be 3.48%. Further, under setting [1], the AC50 is 0.58 µM [falling, single point].

For `CCOC(=O)c1cc(-c2ccc3c(c2)OCO3)nc2onc(C)c12`, the AC50 under setting [2] was 1.46 µM [rising, partial curve] and the AC50 under setting [1] was 0.517 µM [rising, full curve].
